Results from patent US20220338769A1, “METHODS AND APPARATUS FOR SUBSTANCE DELIVERY IN AN IMPLANTABLE DEVICE” (GlySens Incorporated, priority 2021, published 2022).

Assay: Residual DXSP in steroid-eluting leads removed from subjects (Case Study #2)
Type: in vivo, human and canine

What does the source list for C[C@@H]1C[C@H]2[C@@H]3CCC4=CC(=O)C=C[C@]4(C)[C@@]3(F)[C@@H](O)C[C@]2(C)[C@@]1(O)C(=O)COP(=O)(O)O [DSP, dexamethasone sodium phosphate]?
release in the first year: 0.6 to 0.7 mg; average release (first year): 1.6 to 1.9 µg/day
